Measured values from the supplement of paper PMC4807443.
Where a name gives a salt, the structure may show the parent alone. The list shows a part of the results. The numbers are fractions of the control, whatever unit the source prints. Most values lie at the level of the controls, where differences are scatter.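 MIN6 is a mouse insulinoma beta-cell line that stably carries a lentiviral reporter in which the Pdx1 and Ins1 promoters each drive a nucleus-targeted fluorescent protein; cells were counted by automated imaging with a Hoechst nuclear stain. In the screen, a drug was a possible hit when its Ins1 promoter readout lay beyond two median absolute deviations from the DMSO controls while Pdx1 activity stayed near normal.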

Each molecule was assayed on MIN6 (assay: % Pdx1+ Ins1-low (RFP-only, immature) cells relative to DMSO control (fold of DMSO control); higher = more immature Pdx1+/Ins1-low cells). Conditions: 8.5 µM; 48 h; glucose 5 mM.

SMILES | % Pdx1+ Ins1-low
CC(=O)NC(CC(=O)O)C(=O)O (racemic) [Aspartic acid, N-acetyl (R,S)] | 0.891
COc1c(C)c2c(c(O)c1C/C=C(\C)CCC(=O)O)C(=O)OC2 [Mycophenolic acid] | 1.07
Cc1onc(-c2c(F)cccc2Cl)c1C(=O)N[C@@H]1C(=O)N2[C@@H]1SC(C)(C)[C@@H]2C(=O)O [Flucloxacillin sodium] | 0.788
CN(C)CCCSC(=N)N [Dimaprit dihydrochloride] | 0.718
CNCCCC12CCC(c3ccccc31)c1ccccc12 [Maprotiline hydrochloride] | 1.05
OC(c1cc(C(F)(F)F)nc2c(C(F)(F)F)cccc12)C1CCCCN1 (centres undefined) [Mefloquine hydrochloride] | 0.736
C[C@@H]1C[C@H]2[C@@H]3C[C@H](F)C4=CC(=O)C=C[C@]4(C)[C@@]3(Cl)[C@@H](O)C[C@]2(C)[C@H]1C(=O)COC(=O)C(C)(C)C [Clocortolone pivalate] | 1.07
C[C@@H](O)[C@H]1C(=O)N2C(C(=O)O)=C(S[C@@H]3CN[C@H](C(=O)N(C)C)C3)[C@H](C)[C@H]12 [Meropenem] | 1.13
CC1(C)O[C@@H]2C[C@H]3[C@@H]4CCC5=CC(=O)CC[C@]5(C)[C@@]4(F)[C@@H](O)C[C@]3(C)[C@]2(C(=O)CCl)O1 [Halcinonide] | 1.15
C[C@]12C=CC(=O)C=C1CC[C@H]1[C@@H]3C[C@@H](O)[C@](O)(C(=O)CO)[C@@]3(C)C[C@H](O)[C@@]12F [Triamcinolone] | 1.14
CCOc1cc(CC(=O)N[C@@H](CC(C)C)c2ccccc2N2CCCCC2)ccc1C(=O)O [Repaglinide] | 0.746
CCCCN(CCCC)CCC(O)c1cc2c(Cl)cc(Cl)cc2c2cc(C(F)(F)F)ccc12 (centres undefined) [Halofantrine hydrochloride] | 1.17
CC(C)(C)NC(=O)[C@@H]1C[C@@H]2CCCC[C@@H]2CN1C[C@@H](O)[C@H](Cc1ccccc1)NC(=O)[C@H](CC(N)=O)NC(=O)c1ccc2ccccc2n1 [Saquinavir mesylate] | 0.642
CCCCCN(CCCCC)C(=O)C(CCC(=O)O)NC(=O)c1ccc(Cl)c(Cl)c1 (centres undefined) [Lorglumide sodium salt] | 0.591
Nc1nc2c(ncn2COCCO)c(=O)[nH]1 [Acyclovir] | 1.28
COc1ccc(C(=O)c2ccccc2)c(O)c1 [Oxybenzone] | 0.795
COc1ncnc(NS(=O)(=O)c2ccc(N)cc2)c1OC [Sulfadoxine] | 0.739
CC(=O)OCC(=O)[C@@]1(O)[C@H](C)C[C@H]2[C@@H]3CCC4=CC(=O)C=C[C@]4(C)[C@@]3(F)[C@@H](O)C[C@@]21C [Dexamethasone acetate] | 0.9
CCCC1O[C@@H]2C[C@H]3[C@@H]4CCC5=CC(=O)C=C[C@]5(C)[C@H]4[C@@H](O)C[C@]3(C)[C@]2(C(=O)CO)O1 (some centres undefined) [Budesonide] | 1.19
CC(C(=O)O)c1cccc(C(=O)c2ccccc2)c1 (centres undefined) [Ketoprofen] | 0.696
CCN(CC)CCOC(=O)C(Cc1cccc2ccccc12)CC1CCCO1 (centres undefined) [Nafronyl oxalate] | 1.23
C[C@H](N)[C@H](O)c1cccc(O)c1 [Metaraminol bitartrate] | 1.35

SMILES | % Pdx1+ Ins1-low
O=C1CN(/N=C/c2ccc([N+](=O)[O-])o2)C(=O)N1 [Nitrofurantoin] | 1.1
Cc1ccccc1OCC(O)CO (centres undefined) [Mephenesin] | 0.963
CN[C@@H]1[C@@H](O)[C@@H](O[C@@H]2[C@@H](O)[C@H](O[C@H]3OC(CN)=CC[C@H]3N)[C@@H](N)C[C@H]2N)OC[C@]1(C)O [Sisomicin sulfate] | 0.935
Cc1cc(NS(=O)(=O)c2ccc(N)cc2)no1 [Sulfamethoxazole] | 1.01
CC1(C)S[C@@H]2[C@H](NC(=O)[C@H](C(=O)O)c3ccsc3)C(=O)N2[C@H]1C(=O)O [Ticarcillin sodium] | 0.853
CCOC(=O)n1ccn(C)c1=S [Carbimazole] | 0.633
O=C1CN(/N=C/c2ccc(-c3ccc([N+](=O)[O-])cc3)o2)C(=O)N1 [Dantrolene sodium salt] | 1.08
C[C@]12C[C@H](O)[C@H]3[C@@H](CCC4=CC(=O)CC[C@@]43C)[C@@H]1CC[C@@H]2C(=O)CO [Corticosterone] | 1.34
O=c1cc(-c2ccccc2)oc2cc(O)cc(O)c12 [Chrysin] | 0.962
C/C(=C(\CCOP(=O)(O)O)SC(=O)c1ccccc1)N(C=O)Cc1cnc(C)nc1N [Benfotiamine] | 0.921
CCN(CC)C(=S)SSC(=S)N(CC)CC [Disulfiram] | 1.1
O=C(CCCN1CCN(c2ccccn2)CC1)c1ccc(F)cc1 [Azaperone] | 0.855
C#C[C@]1(O)CC[C@H]2[C@@H]3CCC4=CCCC[C@@H]4[C@H]3CC[C@@]21C [Lynestrenol] | 0.622
C[C@H](CCC(=O)O)[C@H]1CC[C@H]2[C@@H]3[C@@H](O)C[C@@H]4C[C@H](O)CC[C@]4(C)[C@H]3CC[C@]12C [Urosiol] | 0.807
CC1CC(OC(=O)c2ccccc2O)CC(C)(C)C1 (centres undefined) [Homosalate] | 0.787
NC[C@@H]1O[C@@H](O[C@H]2[C@H](O)[C@@H](O[C@H]3O[C@H](CO)[C@@H](O)[C@H](N)[C@H]3O)[C@H](N)C[C@@H]2N)[C@@H](O)[C@H](O)[C@H]1O [Kanamycin A sulfate] | 0.673
N[C@@H](Cc1cc(I)c(Oc2ccc(O)c(I)c2)c(I)c1)C(=O)O [Liothyronine] | 0.756
CN1CCC(=C2c3ccccc3Sc3ccccc32)CC1 [Pimethixene maleate] | 1.12
O=C(O)c1ccccc1C(=O)Nc1ccc(S(=O)(=O)Nc2nccs2)cc1 [Phthalylsulfathiazole] | 0.763
OCCN(CCO)c1nc(N2CCCCC2)c2nc(N(CCO)CCO)nc(N3CCCCC3)c2n1 [Dipyridamole] | 0.933
CN1CCN(C(c2ccccc2)c2ccccc2)CC1 [Cyclizine hydrochloride] | 1.11
COC(=O)C1=CO[C@@H](C)[C@H]2CN3CCc4c([nH]c5ccccc45)[C@@H]3C[C@H]12 [Ajmalicine hydrochloride] | 2.73

Single entries from above:
% Pdx1+ Ins1-low with C[C@@H]1C[C@H]2[C@@H]3C[C@H](F)C4=CC(=O)C=C[C@]4(C)[C@@]3(Cl)[C@@H](O)C[C@]2(C)[C@H]1C(=O)COC(=O)C(C)(C)C [Clocortolone pivalate] is entered as 1.07
% Pdx1+ Ins1-low with CNCCCC12CCC(c3ccccc31)c1ccccc12 [Maprotiline hydrochloride] is entered as 1.05
